One series concerns the target T1, GST-TAp73α (UniProt O15350).
T1 sequence (looked up, limits assumed): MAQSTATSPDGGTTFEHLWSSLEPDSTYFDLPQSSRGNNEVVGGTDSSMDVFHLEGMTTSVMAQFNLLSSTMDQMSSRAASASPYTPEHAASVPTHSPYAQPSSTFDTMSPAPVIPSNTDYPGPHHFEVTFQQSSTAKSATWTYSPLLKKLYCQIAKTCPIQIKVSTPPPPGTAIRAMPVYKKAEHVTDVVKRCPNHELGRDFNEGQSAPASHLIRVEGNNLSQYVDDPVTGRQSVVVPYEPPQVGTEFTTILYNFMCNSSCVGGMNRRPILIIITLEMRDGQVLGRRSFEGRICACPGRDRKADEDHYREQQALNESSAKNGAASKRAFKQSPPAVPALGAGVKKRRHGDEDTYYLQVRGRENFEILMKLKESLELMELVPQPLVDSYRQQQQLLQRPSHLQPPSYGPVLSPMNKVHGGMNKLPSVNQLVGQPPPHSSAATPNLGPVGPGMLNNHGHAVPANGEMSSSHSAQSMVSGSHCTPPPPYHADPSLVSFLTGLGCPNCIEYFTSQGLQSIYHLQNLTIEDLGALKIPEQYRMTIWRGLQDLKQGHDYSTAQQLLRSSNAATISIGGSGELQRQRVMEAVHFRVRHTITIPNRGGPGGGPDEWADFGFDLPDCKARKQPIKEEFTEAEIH
The experiment in a line: fluorescence polarization. Conditions: TAp73 first, then p53 titrated, GST-XIAP had no effect; FP: 4 nM FAM duplex, 100 mM NaCl, 10 mM Tris-HCl pH 7.5, 10% glycerol, 5 mM DTT, 0.2 mg/mL BSA, room temperature; commercial protein; protein details: GST; label: 5' 6-FAM on strand 1.

Another series has as its target GST-p53 (UniProt P04637). The experiment in a line: fluorescence polarization. Conditions: p53 to saturation, then GST-TAp73 titrated, GST-XIAP had no effect; FP: 4 nM FAM duplex, 100 mM NaCl, 10 mM Tris-HCl pH 7.5, 10% glycerol, 5 mM DTT, 0.2 mg/mL BSA, room temperature; commercial protein; protein details: GST; label: 5' 6-FAM on strand 1. A general note: In fluorescence polarisation assays a small probe gives low polarisation when free and higher when bound to something large.

Series [1] concerns the target T2, HA-TAp73α (transfected, p53-KO HCT116 lysate) (UniProt O15350).
T2 sequence (looked up, limits assumed): T1 sequence (looked up, limits assumed)
The experiment in a line: pull-down. The note with it: pull-down: 2 ug duplex with lysate, 90 min room temperature, then streptavidin beads 2 h 4 C, protein in a lysate after overexpression, protein details: HA, label: 5' biotin.

Series [2] has as its target p53 (transfected, p53-KO HCT116 lysate) (UniProt P04637). The experiment in a line: pull-down. Conditions: pull-down: 2 ug duplex with lysate, 90 min room temperature, then streptavidin beads 2 h 4 C, protein in a lysate after overexpression, label: 5' biotin.

Construct, isoform or probe ends are uncertain for at least one entry. For part of these data: The comparison behind a weaker result is the experiment's own reference, which may not be listed here. For part of these data: Where a protein sequence is shown, tags need not be part of it. For part of these data: At least one result comes from cells or an extract, where the contact may be indirect. For part of these data: Negatives hold for the conditions tested. For part of these data: At least one verdict was read from the data and is not stated in words by the source.

As to “CGCGCCTGCAAGTCCTGACTTGTCCGCGGC (double strand) [PUMA promoter duplex, FAM]”, the binding result in the series with GST-TAp73α and in the series with GST-p53 was “binds more weakly” in each case.

For “CGCGCCTGCAAGTCCTGACTTGTCCGCGGC (double strand) [PUMA promoter duplex, biotin]”, the binding result in series [1] (TAp73α expressed alone) is given as “binds”; in series [1] (co-expressed with p53, binding abolished), “no binding”; in series [2] (co-expressed with TAp73α, binding abolished), “no binding”; in series [2] (p53 expressed alone) it was “binds”.

Values taken from publication PMC4226670.
